Taken from: PubChem BioAssay AID504774 (Drosophila RNAi Screening Center, 2011)
Test: 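Fly genes whose loss alters survival after alkylation damage to DNA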 (primary screen). Cell system: Drosophila Kc167 cells. Reagent: long dsRNA against Drosophila genes, about 0.25 µg dsRNA per well. Time to read-out: about 6 days: 3 days knock-down, then 3 days with or without MMS. Challenge: methyl methanesulphonate 0.004% (w/v) for 3 days after knock-down. Measured: 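ATP-dependent luminescence as a measure of live cells in MMS-exposed wells, quantile normalised within each plate, with replicate values also given as a mean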. Direction: mean viability with MMS and viability with MMS: higher = more surviving cells after MMS.
The screen tested about 23,000 reagents; shown is an unselected part of those with a known target gene and a result. 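Values are quantile-normalised luminescence on an arbitrary scale; higher means more cells surviving MMS.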 Further read-outs or replicates are left out here.

Cyt-c1L [DRSC14860] — mean viability with MMS: 3.50e6; viability with MMS, replicate 1: 3.84e6
Cyt-c1L [DRSC22096] — mean viability with MMS: 3.68e6; viability with MMS, replicate 1: 4.13e6
Lamtor3 [DRSC02815] — mean viability with MMS: 3.51e6; viability with MMS, replicate 1: 3.91e6
Mipp1 [DRSC11223] — mean viability with MMS: 3.45e6; viability with MMS, replicate 1: 3.79e6
CG14932 [DRSC02414] — mean viability with MMS: 3.40e6; viability with MMS, replicate 1: 3.84e6
Karl [DRSC19883] — mean viability with MMS: 3.59e6; viability with MMS, replicate 1: 3.91e6
CG15531 [DRSC15068] — mean viability with MMS: 3.55e6; viability with MMS, replicate 1: 3.94e6
wmd [DRSC04436] — mean viability with MMS: 3.59e6; viability with MMS, replicate 1: 3.88e6
Ehbp1 [DRSC06561] — mean viability with MMS: 3.41e6; viability with MMS, replicate 1: 3.91e6
Rab3-GAP [DRSC02001] — mean viability with MMS: 3.57e6; viability with MMS, replicate 1: 3.98e6
Wee1 [DRSC03635] — mean viability with MMS: 3.61e6; viability with MMS, replicate 1: 4.05e6
Wee1 [DRSC23318] — mean viability with MMS: 3.70e6; viability with MMS, replicate 1: 4.29e6
Prp5 [DRSC19975] — mean viability with MMS: 3.49e6; viability with MMS, replicate 1: 3.97e6
armi [DRSC08193] — mean viability with MMS: 3.61e6; viability with MMS, replicate 1: 4.05e6
Cog8 [DRSC02961] — mean viability with MMS: 3.63e6; viability with MMS, replicate 1: 4.28e6
CG12857 [DRSC06197] — mean viability with MMS: 3.49e6; viability with MMS, replicate 1: 4.12e6
vilya [DRSC18588] — mean viability with MMS: 3.47e6; viability with MMS, replicate 1: 4.11e6
CG13871 [DRSC06430] — mean viability with MMS: 3.43e6; viability with MMS, replicate 1: 3.88e6
CG33342 [DRSC13662] — mean viability with MMS: 3.47e6; viability with MMS, replicate 1: 4.05e6
bin [DRSC10332] — mean viability with MMS: 3.48e6; viability with MMS, replicate 1: 3.96e6
ewg [DRSC18773] — mean viability with MMS: 3.59e6; viability with MMS, replicate 1: 4.10e6
C901 [DRSC19351] — mean viability with MMS: 3.67e6; viability with MMS, replicate 1: 4.10e6
CG11113 [DRSC06039] — mean viability with MMS: 3.54e6; viability with MMS, replicate 1: 4.00e6
ltl [DRSC10206] — mean viability with MMS: 3.65e6; viability with MMS, replicate 1: 4.19e6
ltl [DRSC10870] — mean viability with MMS: 3.53e6; viability with MMS, replicate 1: 3.95e6
tzn [DRSC11755] — mean viability with MMS: 3.57e6; viability with MMS, replicate 1: 4.12e6
O-fut2 [DRSC18608] — mean viability with MMS: 3.42e6; viability with MMS, replicate 1: 3.86e6
CG40198 [DRSC21068] — mean viability with MMS: 3.44e6; viability with MMS, replicate 1: 3.98e6
Idh3b [DRSC16040] — mean viability with MMS: 3.66e6; viability with MMS, replicate 1: 4.18e6
rept [DRSC11388] — mean viability with MMS: 3.12e6; viability with MMS, replicate 1: 3.64e6
jbug [DRSC03952] — mean viability with MMS: 3.47e6; viability with MMS, replicate 1: 4.00e6
jbug [DRSC04114] — mean viability with MMS: 3.56e6; viability with MMS, replicate 1: 4.06e6
jbug [DRSC04167] — mean viability with MMS: 3.77e6; viability with MMS, replicate 1: 3.83e6
jbug [DRSC04388] — mean viability with MMS: 3.61e6; viability with MMS, replicate 1: 3.99e6
Nacalpha [DRSC07477] — mean viability with MMS: 3.23e6; viability with MMS, replicate 1: 3.72e6
CG5823 [DRSC15881] — mean viability with MMS: 3.77e6; viability with MMS, replicate 1: 4.35e6
CG7714 [DRSC16300] — mean viability with MMS: 3.49e6; viability with MMS, replicate 1: 3.87e6
lbk [DRSC07178] — mean viability with MMS: 3.65e6; viability with MMS, replicate 1: 4.16e6
nAChRbeta1 [DRSC08097] — mean viability with MMS: 3.58e6; viability with MMS, replicate 1: 4.12e6
nAChRbeta1 [DRSC08728] — mean viability with MMS: 3.53e6; viability with MMS, replicate 1: 3.95e6
CG32647 [DRSC19690] — mean viability with MMS: 3.53e6; viability with MMS, replicate 1: 3.99e6
CG32647 [DRSC19878] — mean viability with MMS: 3.48e6; viability with MMS, replicate 1: 3.86e6
CG10383 [DRSC02050] — mean viability with MMS: 3.47e6; viability with MMS, replicate 1: 3.71e6
Sclp [DRSC19851] — mean viability with MMS: 3.43e6; viability with MMS, replicate 1: 3.50e6
Rpe [DRSC06407] — mean viability with MMS: 3.48e6; viability with MMS, replicate 1: 3.87e6

Reformatted: entries from further up.
predicted target	DRSC id	mean viability with MMS	viability with MMS, replicate 1
CG5823	DRSC15881	3.77e6	4.35e6
CG7714	DRSC16300	3.49e6	3.87e6
lbk	DRSC07178	3.65e6	4.16e6
nAChRbeta1	DRSC08097	3.58e6	4.12e6
nAChRbeta1	DRSC08728	3.53e6	3.95e6
CG32647	DRSC19690	3.53e6	3.99e6
CG32647	DRSC19878	3.48e6	3.86e6
